PubChem BioAssay AID1224830 – NIAID – 2016

Assay: 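Genes whose knock-down alters the TNF-alpha reporter response to LPS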 (primary screen)
Cells: human THP-1 monocytic leukaemia cells, TNF dual-luciferase reporter clone, PMA-differentiated to macrophage-like cells
Reagents: siRNA pool against human genes, 50 nM
Timing: LPS for 4 h, given about 3 days after siRNA transfection
Treatment: bacterial LPS (TLR4 ligand), 10 ng/ml
Measurement: 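TNF firefly reporter luminescence divided by renilla, normalised to the plate median, then turned into a robust z-score for each replicate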
Scale: TNF reporter robust z-score: higher = stronger TNF reporter response to LPS
Rule for the call: 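a well is active when its z-score exceeds 2.8 or falls below -1.5; control wells carry no call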
The deposit covers about 18,000 reagents; this is a part drawn at random. About 2,900 of them (16%) count as active. 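Calls are made per well; low scores hint the gene aids the LPS response, high scores that it dampens it.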 Unmarked entries are inactive. Repeated entries: four replicate wells of each siRNA pool. No sequences are given here.

gene knocked down	TNF reporter robust z-score
PEX39	-0.85
PEX39	-1.11
PEX39	-0.95
PEX39	-0.94
RNASE2	-0.69
RNASE2	-0.37
RNASE2	-1.08
RNASE2	-0.93
UBE4A	-0.85
UBE4A	-0.5
UBE4A	-0.31
UBE4A	0.77
ANKAR	0.59
ANKAR	0.62
ANKAR	0.31
ANKAR	2.57
RNF133	-0.76
RNF133	-1.17
RNF133	1.92
RNF133	3.44 (active)
PRKAA1	1.07
PRKAA1	2.01
PRKAA1	2.23
PRKAA1	1.82
TBC1D3C	-0.75
TBC1D3C	-0.56
TBC1D3C	-0.59
TBC1D3C	-0.49
C9orf72	-1.94 (active)
C9orf72	-1.65 (active)
C9orf72	-1.75 (active)
C9orf72	-1.4
MIB1	-0.1
MIB1	2.15
MIB1	-0.79
MIB1	-0.55
EPHA8	1.07
EPHA8	0.92
EPHA8	0.58
EPHA8	0.87
ICE2	-0.94
ICE2	0.04
ICE2	-0.35
ICE2	0.81
OR6C6	0.3
OR6C6	-0.27
OR6C6	-0.19
OR6C6	0.54
LRRFIP2	4.61 (active)
LRRFIP2	0.76
LRRFIP2	2.41
LRRFIP2	1.2
CPAMD8	-0.67
CPAMD8	-0.24
CPAMD8	-1.41
CPAMD8	-1.55 (active)
KLHL13	0.34
KLHL13	0.58
KLHL13	-0.23
KLHL13	-0.96
ACSBG1	0.71
ACSBG1	1.96
ACSBG1	1.04
ACSBG1	1.06
OASL	-2 (active)
OASL	-1.76 (active)
OASL	-1.83 (active)
OASL	-1.71 (active)
GARIN1B	0.3
GARIN1B	1.17
GARIN1B	1.23
GARIN1B	1.43
MAML3	1.44
MAML3	1.59
MAML3	1.85
MAML3	1.55
LCE1E	0.23
LCE1E	-0.62
LCE1E	-1.22
LCE1E	-0.86
CCL11	-0.1
CCL11	0.15
CCL11	-1.04
CCL11	-0.56
HYAL4	0.86
HYAL4	1.44
HYAL4	0.68
HYAL4	2.18
RNF135	1.11
RNF135	-0.28
RNF135	1.08
RNF135	0.25
SPPL2B	-1.63 (active)
SPPL2B	-0.7
SPPL2B	0.4
SPPL2B	1.26
CALU	0.51
CALU	-0.08
CALU	0.73
CALU	1.31
MICA	-0.06
MICA	-0.45
MICA	-0.49
MICA	-0.18
CANX	-0.96
CANX	-0.59
CANX	-0.66
CANX	-0.48
BCL2L1	-1.53 (active)
BCL2L1	-1.08
BCL2L1	-1.37
BCL2L1	-1.29
